# Screening data, single-dose tests

Data taken from ChEMBL document CHEMBL3988442, “University of Dundee, Small-Polar-MMV Screening Library” (2021).

Mtb glucose medium: 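Phenotypic screen: M. tuberculosis growth, glucose 7H9 medium, 3 days; the read-out is not stated. Concentration: 50 µM. Direction is inferred from retests: higher values go with more growth inhibition. Of about 69,000 compounds tested this way, about 760 (1.1%) reached 50% or more in at least one test.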
Mtb cholesterol medium: 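Whole-cell growth test on Mycobacterium tuberculosis, read after 4 days in a medium based on cholesterol and the lipid DPPC; the read-out is not stated. Compounds at 50 µM. Direction is inferred from retests: higher values go with more growth inhibition. About 69,000 compounds were tested under these conditions; 0.54% (about 370) showed 50% or more at least once.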

Each number is a percent effect as filed. The controls that fix the scale are not given in the record; negative values are as filed. This is an unselected part of the compounds tested. Two or more numbers in one place are separate tests of the same structure; such repeats can differ widely.

Cc1ccc(C2CCCCCN2CCNS(C)(=O)=O)o1 (centres unmarked) gave Mtb glucose medium: 8.714%; Mtb cholesterol medium: 2.834%. Result for [H][C@]12CCN(c3ccccc3)C[C@@]1([H])OCCN(C(=O)c1ccco1)C2 was Mtb glucose medium: -0.9973%; Mtb cholesterol medium: 4.461% and -2.44%. For CCc1nc2c(N3CCC4(CC3)CC(=O)N(CC)C4)ncnc2o1 the result was Mtb glucose medium: 5.244%; Mtb cholesterol medium: -26.3%. CSc1ccc(-c2noc(CN(Cc3ccccc3)C(C)C)n2)cc1 gave Mtb glucose medium: -10.4% and 2.516%; Mtb cholesterol medium: -0.1311%. [H][C@@]12CS(=O)(=O)C[C@]1([H])N(C(=O)c1cscn1)CCN2C(=O)C(C)C gave Mtb glucose medium: -0.2228% and 9.002%; Mtb cholesterol medium: -10.12%.

With Cn1ccnc1C(=O)N1CCC(Cn2cc(-c3ccsc3)nn2)CC1 the screen gave Mtb glucose medium: 5.406% and 11.38%; Mtb cholesterol medium: 11.69%. Cn1c(CO)nnc1SCc1c(F)cccc1Br read Mtb glucose medium: 2.142% and 14.41%; Mtb cholesterol medium: 6.803%. For CCCc1nnc(NC(=O)Cc2c(C)nc(C)[nH]c2=O)s1 the result was Mtb glucose medium: 4.998%; Mtb cholesterol medium: -0.7656%. O=C(O)c1cc(-c2cccnc2)cc(S(=O)(=O)N2CCCCCC2)c1 read Mtb glucose medium: -8.206%; Mtb cholesterol medium: -11.13%. Result for CC(=O)NC[C@@H]1C=C(C)[C@H](CC(=O)NCCN(C)C)C[C@H]1C(C)C was Mtb glucose medium: -18.02% and -72.99%; Mtb cholesterol medium: -18.71%.

For COc1cc(C(=O)N(Cc2cnn(C)c2)C(C)C)ccc1C the result was Mtb glucose medium: -14.4%; Mtb cholesterol medium: -19.59%. CN(Cc1cn2c(n1)CN(Cc1ccc(F)cc1)CC2)Cc1ccco1.O=C(O)C(F)(F)F.O=C(O)C(F)(F)F gave Mtb glucose medium: 20.45%; Mtb cholesterol medium: -1.847% and -1.592%. With O=c1cc(CN2CCCC(CCc3c(F)cccc3F)C2)[nH]c(=O)[nH]1 (centres unmarked) the screen gave Mtb glucose medium: 15.39%; Mtb cholesterol medium: 23.84%. With Cc1nc(-c2cccs2)ccc1C(=O)N1CCN(CC(C)O)CC1 (centres unmarked) the screen gave Mtb glucose medium: 9.61%; Mtb cholesterol medium: -6.306%. With CC(C)Cc1ccc(S(=O)(=O)Nc2ccc(=O)n(C)c2)cc1 the screen gave Mtb glucose medium: -2.035%; Mtb cholesterol medium: -5.037%.

Result for CN(CC(=O)NC1(C)CCS(=O)(=O)C1)Cc1ccc(F)c(F)c1 (centres unmarked) was Mtb glucose medium: -39.92%; Mtb cholesterol medium: -23.79%. O=C(CN1CCOc2ccc(Cl)cc21)NCCCn1cccn1 read Mtb glucose medium: -7.685%; Mtb cholesterol medium: -11.92%. Cc1cnn(CC(C)NCc2ccc(OCC(N)=O)cc2)c1 (centres unmarked) read Mtb glucose medium: -15.34%; Mtb cholesterol medium: -22.37%. Result for O=C(Cc1ccc(F)cc1)N1CCCC(c2n[nH]c3nccnc23)C1 (centres unmarked) was Mtb glucose medium: 12.72%; Mtb cholesterol medium: -23.03%. With NS(=O)(=O)CCNC(=O)c1cc(Br)c2c(c1)OCCO2 the screen gave Mtb glucose medium: 13.47%; Mtb cholesterol medium: 22.19%.

For CCc1n[nH]c(C2CN(C(=O)c3csnn3)CCO2)n1 (centres unmarked) the result was Mtb glucose medium: 10.75%; Mtb cholesterol medium: 6.358%. With CS(=O)(=O)NCc1nnc2n1CCN(CC1CC1)C2 the screen gave Mtb glucose medium: -22.03%; Mtb cholesterol medium: 2.891%. Result for Cc1c[nH]c(CN(C)C(=O)c2ccc(CSc3nnc[nH]3)o2)n1 was Mtb glucose medium: -4.821% and -16.87%; Mtb cholesterol medium: -4.096%. For Cc1nc(CN(C)C(=O)Nc2cccc(COC(C)C)c2C)no1 the result was Mtb glucose medium: -28.23%; Mtb cholesterol medium: 6.502%. CSc1ccccc1C(=O)N1CCN(C)C2(CCC(=O)N(C)CC2)C1 (centres unmarked) gave Mtb glucose medium: 1.271% and -7.77%; Mtb cholesterol medium: 4.763%.

Result for COc1c(C2CCCN2CC(=O)Nc2cccnc2)c(C)nn1C (centres unmarked) was Mtb glucose medium: -16.39% and -2.097%; Mtb cholesterol medium: 4.621%. Result for O=C(CNc1ccc(OC2CCOC2)cc1)NCc1ccco1 (centres unmarked) was Mtb glucose medium: -5.304%; Mtb cholesterol medium: 13.47%. CCOC(=O)N1CC(=O)N(Cc2cccc(OC)c2OC)CC(O)C1 (centres unmarked) read Mtb glucose medium: -1.651%; Mtb cholesterol medium: -18.82%. O=C(COCc1ccccc1)Nc1ccccn1 read Mtb glucose medium: 32.47%; Mtb cholesterol medium: 18.46%. With C[C@H](O)CNC(=O)c1cnc(-c2ccccc2)nc1O the screen gave Mtb glucose medium: -3.293%; Mtb cholesterol medium: 16.33%.

With CCn1c(CN2CCCC2)nnc1C1CCN(Cc2cccnc2)CC1 the screen gave Mtb glucose medium: -6.728%; Mtb cholesterol medium: -2.229% and -3.608%. CCOc1cccc(CNC(C)c2ccc(-n3ccnc3)cc2)c1O (centres unmarked) read Mtb glucose medium: -7.92%; Mtb cholesterol medium: -10.23%. Result for CCc1c(C)nc2n(c1=O)CC(C(=O)Nc1ccccc1F)CS2 (centres unmarked) was Mtb glucose medium: 11.7%; Mtb cholesterol medium: 2.679%.

Repeated from the top, 3 entries:

compound,Mtb glucose medium,Mtb cholesterol medium
Cc1ccc(C2CCCCCN2CCNS(C)(=O)=O)o1 (centres unmarked),8.714%,2.834%
[H][C@]12CCN(c3ccccc3)C[C@@]1([H])OCCN(C(=O)c1ccco1)C2,-0.9973%,4.461% and -2.44%
CCc1nc2c(N3CCC4(CC3)CC(=O)N(CC)C4)ncnc2o1,5.244%,-26.3%